Test system: streptozotocin-induced diabetic rats
Assay: Streptozotocin-induced diabetic nephropathy in rats
Type: in vivo, Sprague-Dawley rats
Procedure: Diabetic kidney disease in the rat was induced by streptozotocin (STZ) to test the effectiveness of 5-methyl-2(1H)-pyridone (AKF-PD) in preserving kidney function by reducing the level of proteinuria.
Diabetic nephropathy was induced in Sprague-Dawley rats with a single intravenous injection of STZ (45 mg/kg). Streptozotocin was injected in a single dose of 45 mg/kg, i.v., to rats (Male Sprague-Dawley rats (200-250 g). Age-matched control rats received citrate buffer and were used in parallel with diabetic animals. Two days after STZ injection, plasma glucose levels were measured. Rats having plasma glucose levels>250 mg/dL after 4 weeks were selected for the study. Control and diabetic rats were divided into two groups, consisting of 6 animals each. AKF-PD was suspended in 0.5% sodium carboxy methylcellulose (CMC). From 4 to 8 weeks after the initial STZ injection, the first group of control animals received vehicle, and the second group received a suspension of AKF-PD (500 mg/kg per day) orally. Similarly, one group of diabetic rats received vehicle and the second group received AKF-PD (500 mg/kg per day). At the end of 8th week, rats were kept individually in metabolic cages for 24 h to collect urine for the measurements. Renal function was assessed by measuring plasma and urine levels of creatinine and urea and urine albumin excretion. Plasma glucose levels were also measured at 4 weeks and at the end of the experiment to investigate the effect of AKF-PD on glucose levels. Urinary proteins were measured by Bio-Rad protein assay (Bio-Rad, Hercules, Calif.). Blood urea nitrogen and creatinine levels were measured using Beckman analyzers (BUN Analyzer II, and Creatinine Analyzer II Beckman Instruments Inc., Brea, Calif.).

[1] = DN (diabetic) rats + AKF-PD 500 mg/kg per day p.o., 4 weeks, mean ± SEM (n = 6)
[2] = control rats + AKF-PD 500 mg/kg per day p.o., 4 weeks, mean ± SEM (n = 6)

With `Cc1ccc(=O)n(-c2cccc(F)c2)c1` [AKF-PD, 1-(3′-Fluorophenyl)-5-Methyl-2(1H)-Pyridone] the “plasma glucose levels and bodyweight” value (500 mg/kg per day from 4 to 8 weeks, control or diabetic rats) was “did not alter”, the Bodyweight [1] was 192.82 ± 3.91 g and the Plasma glucose levels [1] was 440.25 ± 9.55 mg/dL. It also gave a Urine output (control rats + AKF-PD 500 mg/kg per day p.o., 4 weeks, 24 h urine, mean ± SEM (n = 6)) of 11.15 ± 0.75 mL, a Blood urea nitrogen [2] of 13.58 ± 0.79 mg/dL and a Bodyweight [2] of 240.35 ± 4.20 g. For the same molecule, the Plasma glucose levels [2] was 117.00 ± 6.10 mg/dL, the Serum creatinine [2] was 0.36 ± 0.02 mg/dL and the Urinary albumin excretion [2] was 3.26 ± 0.25 mg/dL.

From patent US20100099719A1, “COMPOSITION AND METHOD FOR TREATING PROTEINURIA” (DIEREPHARMA, INC., priority 2008, published 2010)
